Data on one substance can be found in article PMC5620150.

Sequences of proteins named here, by UniProt entry; tags and fusion partners are left off.
UniProt Q92769: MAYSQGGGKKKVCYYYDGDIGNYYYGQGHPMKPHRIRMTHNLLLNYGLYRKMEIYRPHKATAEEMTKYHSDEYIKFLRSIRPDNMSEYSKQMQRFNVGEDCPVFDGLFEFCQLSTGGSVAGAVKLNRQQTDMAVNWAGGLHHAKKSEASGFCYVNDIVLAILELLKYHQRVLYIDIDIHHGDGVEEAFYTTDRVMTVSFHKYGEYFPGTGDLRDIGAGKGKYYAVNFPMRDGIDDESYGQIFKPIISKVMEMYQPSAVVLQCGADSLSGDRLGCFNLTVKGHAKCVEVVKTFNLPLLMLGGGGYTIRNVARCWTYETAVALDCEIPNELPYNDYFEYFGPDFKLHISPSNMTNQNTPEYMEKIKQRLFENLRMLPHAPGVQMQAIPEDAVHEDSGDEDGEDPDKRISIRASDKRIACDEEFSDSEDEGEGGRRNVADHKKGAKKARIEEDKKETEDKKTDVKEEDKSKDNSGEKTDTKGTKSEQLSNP

No constants are given. Whether binding was seen depends on the method and setting. Binding seen in cells or lysates may run through a third protein. Some binding calls cover weakened binding; strength is not graded here.

This test addresses T1, DAB2IP (human (endogenous in 786O)) (UniProt Q5VWQ8).
T1 sequence: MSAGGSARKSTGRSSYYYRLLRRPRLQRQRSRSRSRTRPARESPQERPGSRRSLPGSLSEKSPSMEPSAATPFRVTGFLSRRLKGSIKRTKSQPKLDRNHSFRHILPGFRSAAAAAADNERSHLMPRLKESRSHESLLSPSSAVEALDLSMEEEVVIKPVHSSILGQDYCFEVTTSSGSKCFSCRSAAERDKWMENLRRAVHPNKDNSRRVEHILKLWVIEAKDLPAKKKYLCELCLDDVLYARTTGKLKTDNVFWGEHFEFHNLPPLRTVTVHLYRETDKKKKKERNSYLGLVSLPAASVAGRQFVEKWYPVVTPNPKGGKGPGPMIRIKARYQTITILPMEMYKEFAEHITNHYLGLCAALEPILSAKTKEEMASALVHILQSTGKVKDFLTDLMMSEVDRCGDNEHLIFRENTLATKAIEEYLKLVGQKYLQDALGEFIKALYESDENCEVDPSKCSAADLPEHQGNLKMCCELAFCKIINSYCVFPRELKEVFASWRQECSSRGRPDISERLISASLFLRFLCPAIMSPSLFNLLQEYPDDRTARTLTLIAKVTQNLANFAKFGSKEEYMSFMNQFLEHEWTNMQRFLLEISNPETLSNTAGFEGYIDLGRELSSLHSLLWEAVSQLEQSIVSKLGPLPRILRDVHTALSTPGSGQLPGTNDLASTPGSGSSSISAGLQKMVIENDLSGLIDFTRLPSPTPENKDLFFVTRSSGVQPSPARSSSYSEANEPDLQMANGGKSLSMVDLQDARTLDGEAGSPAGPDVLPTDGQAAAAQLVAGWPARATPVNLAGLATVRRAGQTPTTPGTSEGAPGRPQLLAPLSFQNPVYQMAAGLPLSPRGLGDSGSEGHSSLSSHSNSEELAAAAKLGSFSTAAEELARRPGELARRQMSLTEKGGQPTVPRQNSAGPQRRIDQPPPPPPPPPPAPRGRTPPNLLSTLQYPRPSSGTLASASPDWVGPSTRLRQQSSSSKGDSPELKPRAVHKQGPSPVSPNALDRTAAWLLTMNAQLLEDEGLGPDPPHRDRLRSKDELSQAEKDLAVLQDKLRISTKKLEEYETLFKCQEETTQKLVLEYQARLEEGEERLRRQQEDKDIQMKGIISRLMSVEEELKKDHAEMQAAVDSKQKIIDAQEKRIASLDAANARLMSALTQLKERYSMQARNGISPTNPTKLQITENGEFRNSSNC
The experiment in a line: co-IP; nuclear proteins extracted from wild type 786O cells; endogenous proteins; which antibody precipitated is not told.

Consider “histone deacetylase (HDAC2) (from UniProt Q92769 1-488) (enzyme)”, for which the binding entry is reported as “binds”.
